Article PMC12040169 (PLOS Biology, 2025)
The list shows a part of the results.

The compounds below were run on T1, CTL2-GFP (C. trachomatis L2/434/Bu, GFP-expressing). Settings: bulk GFP, single well; 28.5 h, 10 µM; inhibitor.
T1 construct: L2/434/Bu, GFP-expressing
Design: species or system HeLa; Intracellular C. trachomatis growth in HeLa cells, bulk GFP fluorescence relative to DMSO

SMILES | % of control remaining [%]
c1cc2c3c(ccc(CSCCc4ccncc4)c3c1)CC2 [CBK261074G] | 85.1807
N#Cc1ccc(Sc2cccc(F)c2)c(F)c1 [CBK002909] | 107.316
Fc1ccc(Nc2cncc(-c3cccs3)n2)cc1Cl [CBK065813] | 98.7464
CCOC(=O)c1cnn(C2CCCN(Cc3cn(C)nc3C)C2)c1 (stereo not drawn) [CBK304044] | 135.8
O=C(Nc1nc(OCC(F)(F)F)cnc1-c1ccc(Cl)cc1Cl)c1cc2ccccc2s1 [CBK145358] | 77.6795
CC(C)c1ccc(S(=O)(=O)Nc2ccc3[nH]c(C(F)(F)F)nc3c2)cc1 [CBK044470] | 68.6746
O=C(NCc1ccc(Cl)cc1)c1cc(-c2ccc(F)cc2)nc2ccccc12 [CBK294451] | 112.471
Cc1ccc(S(=O)(=O)N2CCC(n3c(=O)[nH]c4ccccc43)CC2)cc1Cl [CBK149691] | 103.894
CC(NS(=O)(=O)c1ccccc1)C(=O)Nc1ccc(S(N)(=O)=O)cc1 (stereo not drawn) [CBK266929] | 155.778
CCN(CC)CCN1C(=O)c2oc3cc(C)c(C)cc3c(=O)c2C1c1cc(Br)c(O)c(OC)c1 (stereo not drawn) [CBK266846] | 162.172
COc1ccc(S(=O)(=O)Nc2c(C(=O)O)sc3ncccc23)cc1OC [CBK049979] | 141.702
O=C(Nc1ccc(O)cc1C(=O)O)c1cccc(Br)c1 [CBK018511] | 102.955
CC[C@H]1CN(S(=O)(=O)c2ccccc2)CC[C@H]1CC(=O)N(C)CC#N [CBK289140] | 125.626
Cc1cnc2c(Cl)c(C(=O)N3CCC4(CCCNC4)C3)nn2c1 (stereo not drawn) [CBK307472] | 107.47
O=C1CCC(=O)N1CCOc1nccnc1N1CCN(Cc2ccccc2)CC1 [CBK084288] | 114.699
COc1ccc([N+](=O)[O-])cc1CSc1nnc(COc2ccccc2C)n1C [CBK265820] | 140.329
O=C(O)c1ccc(CSc2nnc(-c3ccncc3)n2-c2ccc(Br)cc2)cc1 [CBK267559] | 127.2
O=[N+]([O-])c1ccc(CN2CCC(Oc3nccnc3OC3CCCCC3)CC2)cc1 [CBK082861T] | 119.401
CC(C)C(=O)N1CCC(n2nc(-c3ccco3)ccc2=O)CC1 [CBK284244] | 133.986
O=C(c1cccnc1)C1CCN(C(=O)CC2CC3CCC2C3)CC1 (stereo not drawn) [CBK283530] | 110.18
CCOc1cc(OCC)cc(C(=O)N2CCC3(CC2)CC(=O)c2ccc(N)cc2O3)c1 [CBK168018] | 132.478
Cc1cccc(C(C)(C)C)c1OCCCCNCCN [CBK265092G] | 106.646
COc1ccc(C(C)C)cc1-c1nc(NS(C)(=O)=O)cc2ccccc12 [CBK073779] | 146.052
O=C(CSc1ccc2nnc(-c3ccccc3)n2n1)NCC1CCCO1 (stereo not drawn) [CBK287515] | 150.171
CC(=O)N1CC[C@H]2NC(=O)CNC(=O)C3(CCCC[C@H]2C1)CCN(C(=O)COc1ccccc1)CC3 [CBK292101] | 112.65
COc1ccc(CN2CCN(C(=O)c3ccccc3F)CC2)cc1OCc1ccccc1 [CBK263479] | 125.962

SMILES | % of control remaining [%]
CCOc1cccc(N2C(=O)c3cc(Br)ccc3NC2c2ccc(OC)c(OC)c2)c1 (stereo not drawn) [CBK074502] | 112.612
COc1ccc(-c2nc(NC(=O)COc3ccc(C)c4c3CCC4)cnc2-c2ccc(F)cc2)cc1 [CBK036990] | 171.582
CCOc1ccc(NC(=O)C(C)O)c(NS(=O)(=O)c2ccc3ccccc3c2)c1 (stereo not drawn) [CBK268309] | 110.361
O=C(O)c1cc(NC(=O)c2ccco2)cc(NC(=O)c2ccco2)c1 [CBK263388] | 100
CCCn1c(SCC(=O)N2CCN(C(=O)c3cccs3)CC2)n[nH]c1=O [CBK297109] | 112.897
CC1(CCc2ccccc2)NC(=O)N(CC(=O)c2ccc(-c3ccccc3)cc2)C1=O (stereo not drawn) [CBK297114] | 101.206
CS(=O)(=O)NCC(=O)N1CCC2(CCCCOc3ccccc3C(=O)NCCNC2=O)CC1 [CBK292123] | 103.779
CCSc1nn(CC)c2oc3c(c2c1=S)CC(C)(C)OC3 [CBK021960] | 179.445
COc1ccnc(N2CCN(C(=O)c3cncnc3C)CC2)n1 [CBK304894] | 128.067
COc1ccc2c(c1)C(O)C(NCc1ccccc1)C2 (stereo not drawn) [CBK015469C] | 95.1497
CN(C)c1ccc(CC(=O)Nc2cnc(-c3cccc(C(F)(F)F)c3)c(-c3cccnc3)n2)cc1 [CBK036901] | 147.308
COc1ccccc1NC(=O)NC(=O)C1CCN(CCc2cccs2)CC1 [CBK034912] | 159.921
Cc1cc(CN(C)Cc2ccc3c(c2)n(C)c(=O)n3C)n[nH]1 [CBK281705] | 82.3872
N#Cc1c(NC(=O)COc2ccc(Cl)cc2)oc(-c2ccccc2)c1-c1ccccc1 [CBK262938] | 109.06
Cc1c(C(=O)N2CCC(c3cc4ncccc4[nH]3)CC2)cnn1C [CBK283384] | 129.612
CC(C)c1ccc(/C=N/Nc2nc(-c3ccccc3)cs2)cc1 [CBK263091] | 94.3602
CCC1CCCCN1C(=O)c1ccccc1C(=O)OC (stereo not drawn) [CBK083196] | 99.7186
COc1ccc(CNc2cccc(C(=O)O)c2C)cc1OC [CBK269634] | 87.7714
CCC(=O)N1CCCCC(NS(=O)(=O)c2ccc(-n3cccn3)cc2)C1 (stereo not drawn) [CBK307398] | 107.313
CC(NC(=O)COc1ccc(Cl)cc1)C(=O)O (stereo not drawn) [CBK262112] | 100
O=C1N=C(NC2C3CC4CC(C3)CC2C4)OC12CCN(CCC(F)(F)F)CC2 (stereo not drawn) [CBK115640] | 108.767
CC(C)C(CCC(=O)Nc1ccc([N+](=O)[O-])cc1O)C(=O)O (stereo not drawn) [CBK268464] | 131.223
CC(C)OC(=O)Cn1c(C2CCNCC2)cc2cccnc21 [CBK285075] | 118.725
CCCNC(=O)CN1C(=O)N2CCCN=C2c2ccccc21 [CBK284405] | 111.217
NC(=O)c1ccc(-c2nccnc2NCCc2ccncc2)cc1 [CBK036644] | 80.4475
O=Cc1c(-[n+]2ccc(-c3ccncc3)cc2)nc([O-])n1-c1ccccc1 [CBK261529] | 108.009

Sorted by heavy-atom count (low to high): 4 of the compounds above
SMILES | % of control remaining [%]
CC(NC(=O)COc1ccc(Cl)cc1)C(=O)O (stereo not drawn) [CBK262112] | 100
CCC1CCCCN1C(=O)c1ccccc1C(=O)OC (stereo not drawn) [CBK083196] | 99.7186
O=C1N=C(NC2C3CC4CC(C3)CC2C4)OC12CCN(CCC(F)(F)F)CC2 (stereo not drawn) [CBK115640] | 108.767
CCOc1cccc(N2C(=O)c3cc(Br)ccc3NC2c2ccc(OC)c(OC)c2)c1 (stereo not drawn) [CBK074502] | 112.612

Further compounds follow.

SMILES | % of control remaining [%]
c1ccc2oc([C@H]3CCN(C4CCOCC4)C3)nc2c1 [CBK289388] | 123.949
O=C(NCCc1ccco1)c1ncoc1-c1ccc(F)cc1 [CBK282247] | 141.087
CN1CCCCC/C1=N/C(=S)CN1CCCC1=S [CBK009052] | 93.9445
COc1cc(NC(=O)CCc2ccccc2)nc(OC)n1 [CBK072282] | 123.72
CC1(C)COC(=O)N1C1CCN(C(=O)CCS/C=C\c2ccccc2)CC1 [CBK045134] | 133.569
CCc1nc2ccc(C(=O)NC3=NC(=O)CS3)cn2c1N(CC)C(C)=O [CBK145839] | 169.265
c1ccc2sc(-n3cncn3)nc2c1 [CBK027022] | 141.124
CCN(Cc1ccccc1)C(=O)NCc1cnc(C)cn1 [CBK155218] | 104.287
CC(Cn1cc(Cl)cn1)C(=O)NCCN(C)C1CCCCC1 (stereo not drawn) [CBK282041] | 100.198
Cc1nnc(SCC(=O)N/N=C/c2ccc(-c3ccc(Br)cc3)o2)n1-c1ccccc1 [CBK262769] | 116.533
CCc1nc2c(OCC(=O)N3CCOCC3)cccn2c1N(C)C(=O)c1ccco1 [CBK147436] | 133.461
FC(F)(F)c1ccc(N2CCNCC2)nc1OCc1ccc2c(c1)OCCO2 [CBK003994A] | 74.5912
Cc1nn(C)cc1CN(Cc1cccc(F)c1)CC1CCCO1 (stereo not drawn) [CBK283013] | 104.126
COc1csc(C(=O)Nc2ncn(CC(=O)N3CCCCCC3)n2)c1 [CBK304463] | 122.114
CCC(=O)NCc1csc(-c2ccccc2)n1 [CBK092344] | 111.105
CC[C@H](Cn1c(=O)oc2ccccc21)NC(=O)c1ccco1 [CBK284541] | 125.422
O=S(=O)(Nc1ccc2cc(Br)cnc2n1)c1cccc2nsnc12 [CBK073894] | 112.904
FC(F)(F)c1ccc(CN2CCN(c3nccnc3OCC3COc4ccccc4O3)CC2)cc1 (stereo not drawn) [CBK082789T] | 94.2059
Cc1ccc(S(=O)(=O)N2Cc3ccccc3CC2C(=O)Nc2sc3c(c2C#N)CCCC3)cc1 (stereo not drawn) [CBK266313] | 116.479
CN(C)c1cccc(-c2nc(-c3cccs3)cnc2N)c1 [CBK063979] | 129.688
O=C(NC(=S)N1CCN(c2ccc([N+](=O)[O-])c(N3CCOCC3)c2)CC1)c1cc2ccccc2o1 [CBK268335] | 111.956
COc1cc(OC)c2c(c1)OC1(CCN(C(=O)c3cnc(C)cn3)CC1)CC2=O [CBK156503] | 113.544
O=C(Cc1ccccc1)N1CCN(C(=O)c2ccco2)CC1 [CBK068325] | 123.04
O=C(O)Cc1sc(Nc2ccccc2)nc1-c1ccccc1 [CBK286775] | 98.9582
CCN(CC)C(=O)[C@@H]1CCCN1c1nc(O)cc(C(F)(F)F)n1 [CBK002867] | 103.936
O=C(O)CC1S/C(=N/N=C/c2cn(Cc3ccccc3)c3ccccc23)NC1=O (stereo not drawn) [CBK264466] | 110.173
